The target of this assay is T1, WD repeat domain protein 37 (Wdr37) from wild-type murine B cell extract (mouse) (UniProt Q8CBE3).
T1 sequence (looked up): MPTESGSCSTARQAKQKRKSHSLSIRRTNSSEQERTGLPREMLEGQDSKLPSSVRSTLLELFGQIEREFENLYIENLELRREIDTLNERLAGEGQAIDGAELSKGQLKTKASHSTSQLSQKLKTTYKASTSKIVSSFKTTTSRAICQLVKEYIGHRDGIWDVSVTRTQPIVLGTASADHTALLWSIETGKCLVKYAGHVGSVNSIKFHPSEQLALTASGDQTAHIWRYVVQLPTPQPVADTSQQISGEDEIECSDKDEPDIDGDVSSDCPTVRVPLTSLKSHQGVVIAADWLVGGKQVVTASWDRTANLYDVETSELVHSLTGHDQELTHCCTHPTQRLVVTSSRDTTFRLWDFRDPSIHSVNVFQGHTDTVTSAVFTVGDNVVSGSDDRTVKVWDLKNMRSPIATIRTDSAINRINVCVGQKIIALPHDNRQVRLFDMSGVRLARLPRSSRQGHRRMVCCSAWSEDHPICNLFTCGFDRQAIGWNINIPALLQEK
In words: bead-immobilized FLAG-Pacs1 incubated with murine B cell extract, co-IP LC-MS/MS, enrichment over beads alone.

By UniProt entry, the sequences of proteins in these tests, tags left out. Residues count along the entry.
UniProt Q8K212, residues 114-961: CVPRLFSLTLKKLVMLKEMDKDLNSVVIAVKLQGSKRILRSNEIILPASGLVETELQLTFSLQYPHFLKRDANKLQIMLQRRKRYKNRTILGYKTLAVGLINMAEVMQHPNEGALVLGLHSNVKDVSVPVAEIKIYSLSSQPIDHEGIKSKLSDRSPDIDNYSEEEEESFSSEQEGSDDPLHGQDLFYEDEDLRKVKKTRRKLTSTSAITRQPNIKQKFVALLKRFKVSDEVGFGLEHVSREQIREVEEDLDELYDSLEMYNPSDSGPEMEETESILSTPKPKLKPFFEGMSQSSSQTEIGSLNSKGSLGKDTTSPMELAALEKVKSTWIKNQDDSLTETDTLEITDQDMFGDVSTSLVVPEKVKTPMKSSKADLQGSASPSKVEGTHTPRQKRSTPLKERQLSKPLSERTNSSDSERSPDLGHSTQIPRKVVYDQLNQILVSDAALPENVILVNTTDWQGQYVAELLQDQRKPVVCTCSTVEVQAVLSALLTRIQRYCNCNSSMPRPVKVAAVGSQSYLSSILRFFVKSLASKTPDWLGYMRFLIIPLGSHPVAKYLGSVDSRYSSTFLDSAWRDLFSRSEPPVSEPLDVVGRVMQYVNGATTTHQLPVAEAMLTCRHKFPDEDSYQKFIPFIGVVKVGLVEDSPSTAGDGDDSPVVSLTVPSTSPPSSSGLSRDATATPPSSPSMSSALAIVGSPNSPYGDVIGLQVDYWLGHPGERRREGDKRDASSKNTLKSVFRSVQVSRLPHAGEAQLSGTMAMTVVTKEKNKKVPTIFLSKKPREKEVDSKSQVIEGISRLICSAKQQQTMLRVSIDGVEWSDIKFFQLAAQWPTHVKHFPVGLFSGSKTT

Results are given in words; binding and its absence hold for the method and conditions named. In cells and extracts the contact can be indirect. Some binding calls cover weakened binding; strength is not graded here.

For “FLAG-Pacs1 (bait of the co-IP mass spectrometry) (from UniProt Q8K212 114-961)”, the binding result is reported as “binds”.

These data come from patent US20230416740A1.
